Drawing on publication PMC7819943, “Rice protein-binding microarrays: a tool to detect cis-acting elements near promoter regions in rice”, this text covers binding signal for 42 sequences.

Protein sequences, listed by entry. Tags and fused reporters are not part of them.
UniProt Q0JBA9, entry or part of it: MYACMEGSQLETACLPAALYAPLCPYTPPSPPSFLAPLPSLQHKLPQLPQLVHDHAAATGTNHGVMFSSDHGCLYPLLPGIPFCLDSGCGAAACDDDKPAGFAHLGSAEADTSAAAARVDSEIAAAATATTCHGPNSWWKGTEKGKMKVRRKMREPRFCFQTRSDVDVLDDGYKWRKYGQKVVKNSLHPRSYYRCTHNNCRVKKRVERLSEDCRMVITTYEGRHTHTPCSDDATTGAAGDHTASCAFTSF

The other results are listed elsewhere or left out.

The target in this assay is OsWRKY34 (Oryza sativa, UniProt Q0JBA9 1-250). The assay is described as follows: protein-binding microarray (RPBM); PBS, 2% BSA, 51.3 ng/ul salmon testes DNA, 50 uM zinc acetate, 200 nM TF, 25 C, 1 h; high values mean tight binding. To be noted: protein: recombinant; tags: N-terminal polyhistidine and DsRed monomer fusion (pET32a); label: CyDye5-dUTP incorporated in the synthesized complementary strand; 3' TTTTT single-stranded linker to array surface; dsDNA, one strand shown. The procedure, abridged: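 For the binding signal, per-feature fluorescence intensity was read in arbitrary units on an Axon 4000B scanner. Before scanning, a 2% BSA-blocked custom Agilent array made double-stranded with Cy5-dUTP was washed after 1 h at 25 °C with 200 nM protein and 50 µM zinc acetate. The proteins were Ni–NTA-purified transcription factors with N-terminal polyhistidine and DsRed fusions, expressed in E. coli BL21-CodonPlus.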
For “ACGCCACATCTCTCGCCAGCGAGCGCACCTCGTCCTCGTCCGGAGTCACCTAGTGCAG”, the binding signal is 9420 fluorescence intensity (a.u.). With “TTGGACCTAAAGTTGAGGAGTGGTTTGCTTGTTTAAATGTCGGAGTCACCTAGTGCAG” the figure was 8310 fluorescence intensity (a.u.); with “GCGGGCGCGGTCGCCGCGCTCAACCTCTCCGGGGCGGGGCCGGAGTCACCTAGTGCAG”, 9450 fluorescence intensity (a.u.). For “CTACAAGGATCCATTGGAAGGCATTTTCCTTATTCCGCACCGGAGTCACCTAGTGCAG”, the binding signal is 8130 fluorescence intensity (a.u.). For the sequence “GAGTTGTGCTGGTCCAGGTGTTTGGCTGCGTTGCAAGGTGCGGAGTCACCTAGTGCAG”, the binding signal was 8440 fluorescence intensity (a.u.). The result for “GCTATGATTGTCTTTAGGGTATCTAATAATTGTGGTTTGACGGAGTCACCTAGTGCAG” reads 10600 fluorescence intensity (a.u.). “TTTCTCGTTCCTATCGACGCCGGAGTCCACGCTGCTCATCCGGAGTCACCTAGTGCAG”: the binding signal was 8220 fluorescence intensity (a.u.).

For “TCATTATCTTTCTCTCTTCATCTCTTGATCAGCTCTTGACCGGAGTCACCTAGTGCAG”, the binding signal was 9560 fluorescence intensity (a.u.). The result for “TCATTTGTCTCCAAGTCTCCACCACCTCCTTATGATCCAACGGAGTCACCTAGTGCAG” reads 9000 fluorescence intensity (a.u.).

“CTTTGGTTAATTGTCGTCTTCTTCTCTCTCTCTGCATCCACGGAGTCACCTAGTGCAG”: the binding signal was 12300 fluorescence intensity (a.u.). In the case of “ACCAAGCCGGCTTTTTTGACCACCCACAGCGCCATCCACACGGAGTCACCTAGTGCAG”, the binding signal was 8240 fluorescence intensity (a.u.). With “GGCCTCCACCGTCCGTTTCTCCGTCCCACGGCCCATCATCCGGAGTCACCTAGTGCAG” the figure was 10400 fluorescence intensity (a.u.); with “GAAGTCTTCTATTGCATTGTTTTATTCTTCACTTAGTGGTCGGAGTCACCTAGTGCAG”, 8230 fluorescence intensity (a.u.). With “CTGTTACTGTTGATTTAGCGCGTTTTGCCTGTATAAATTTCGGAGTCACCTAGTGCAG” the figure was 13700 fluorescence intensity (a.u.). With “ATATTCACCACGTCGTCTTCCTCGTCGTCGCCGCTCTATACGGAGTCACCTAGTGCAG” the figure was 10600 fluorescence intensity (a.u.); with “GTCTTCCCCATTGCGTCGAAGAGAACCATATTCCCAGTTTCGGAGTCACCTAGTGCAG”, 9220 fluorescence intensity (a.u.); with “CAGGACCATGTTGTTGGTCGCGTTTCTGCGGTTCTGATTTCGGAGTCACCTAGTGCAG”, 9570 fluorescence intensity (a.u.). With “GGAGGCCCAGATTCCGCGGCTCGCTTCGTCGTCTCGTCTACGGAGTCACCTAGTGCAG”, the binding signal was 10100 fluorescence intensity (a.u.). With “CTTGGTTTCTTGTTGTGCAACTCTCGTCGTCTCGTTCATCCGGAGTCACCTAGTGCAG” the figure was 11500 fluorescence intensity (a.u.); with “CATACGTTTCCTGTGATTCAATACACTTGCAATACTCTGACGGAGTCACCTAGTGCAG”, 12900 fluorescence intensity (a.u.). With “GCTGCTTCCATCAATACAATACAACTAGTGATTTCGTTGCCGGAGTCACCTAGTGCAG” the figure was 8040 fluorescence intensity (a.u.). On to “GCTGTCTTAGCTCTGAAAATTTTGTATTGTTCATTTGAGGCGGAGTCACCTAGTGCAG”, for which the binding signal is 9170 fluorescence intensity (a.u.). For “GATGTCCACTTCTGCACTTATATATTTTTATTTATTTATTCGGAGTCACCTAGTGCAG”, the binding signal was 11700 fluorescence intensity (a.u.). With “CCTCTTCTCATCACCACTCGTCTCCTCTTCTCGCTTCGCCCGGAGTCACCTAGTGCAG” the figure was 8400 fluorescence intensity (a.u.). The result for “CGGATTCGCCACAGATCTCTCGCCCCACGTCGCCGCCCTCCGGAGTCACCTAGTGCAG” reads 10200 fluorescence intensity (a.u.); that for “CTTATCCACCATCAATGTTCCTGACTTCAATTTTTCGTTGCGGAGTCACCTAGTGCAG”, 10500 fluorescence intensity (a.u.); that for “AAACCCTAGCTCCGGATTCTTCTCCTCTCCTCCTTTCTTCCGGAGTCACCTAGTGCAG”, 8070 fluorescence intensity (a.u.).

Regarding “GATGCATTTATCCCCTGTGCGTTGTTCGGTTGTTGATCCGCGGAGTCACCTAGTGCAG”, the binding signal is 9820 fluorescence intensity (a.u.). Turning to “ATAGTACTGTTATCTGTTGGCACTTAGGGCTTTTTGGCGACGGAGTCACCTAGTGCAG”, the binding signal was 8940 fluorescence intensity (a.u.). With “ATTATCTTTTTTTCGATGCCTTACAACAAATACGCATTCTCGGAGTCACCTAGTGCAG” the figure was 10500 fluorescence intensity (a.u.).

As to “CTTATTAGACCCTGTTTAGTTCCGCGAAAATTTTTCTCAACGGAGTCACCTAGTGCAG”, the binding signal is 8330 fluorescence intensity (a.u.).

On to “TCCAGTTGTTTTGGATAGGCTTGTAGCTAGTCAACTATATCGGAGTCACCTAGTGCAG”, for which the binding signal is 9450 fluorescence intensity (a.u.). The result for “CTACCTTTTGTTCTTGCTTTTTTTTAATTTTTTTTGGGTACGGAGTCACCTAGTGCAG” reads 8910 fluorescence intensity (a.u.); that for “CCCAGCAGTTTCTTCACTATCGCGTATCTCACACCAAAAACGGAGTCACCTAGTGCAG”, 9420 fluorescence intensity (a.u.); that for “AATAAGACGAACGGTCAAACATATTTAAAAAAGTCAACGGCGGAGTCACCTAGTGCAG”, 9950 fluorescence intensity (a.u.). With “CCTCCACTCACAGAGCCAACGAGAGCTCGCCTACATAAACCGGAGTCACCTAGTGCAG” the figure was 8300 fluorescence intensity (a.u.); with “AATTAATCATGCGTTAATGGACCGTTCCGTTTTCCGTGTTCGGAGTCACCTAGTGCAG”, 8920 fluorescence intensity (a.u.). With “ACGTAACCTTACTTTCCATCCATTATTGCCCTTGACAGTTCGGAGTCACCTAGTGCAG” the figure was 13800 fluorescence intensity (a.u.); with “GTTTTCTTTGTTGTCATCATCCTTGCTGGACTCGTCCTTACGGAGTCACCTAGTGCAG”, 9500 fluorescence intensity (a.u.).

With “CTGCAACTGTAAGCTTTTCCCACCATTTGCACGCTTCCCACGGAGTCACCTAGTGCAG”, the binding signal was 8300 fluorescence intensity (a.u.). With “TAGTAGTAGAGCAGTAGTAGCAGTGTTGTTTTCTTCATCTCGGAGTCACCTAGTGCAG” the figure was 8590 fluorescence intensity (a.u.). The result for “GGAGGCGGCGGCGACGAGGAGGGGCGTGGGCGGCGGCGGCCGGAGTCACCTAGTGCAG” reads 8760 fluorescence intensity (a.u.).
